Measurements reported in the supplement of paper PMC3334620.
Whole data set: some 33,000 sequences, median “E-score (-0.5 to 0.5)” near -8e-05, cut for the highest 2% near 0.23. The list shows a part of the results.

target: T1, Nrg2 (UniProt P38082); assay: PBM E-score (8-mer binding enrichment) (E-score (-0.5 to 0.5)); higher = stronger / more preferred TF binding; conditions: protein concentration: 100 nM; construct: GST-full length
T1 sequence: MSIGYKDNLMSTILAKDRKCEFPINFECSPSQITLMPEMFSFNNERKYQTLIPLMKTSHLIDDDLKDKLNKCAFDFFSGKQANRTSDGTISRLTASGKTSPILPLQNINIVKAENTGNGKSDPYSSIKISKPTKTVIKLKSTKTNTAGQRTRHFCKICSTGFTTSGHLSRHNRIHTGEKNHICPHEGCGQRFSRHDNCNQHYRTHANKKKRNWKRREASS
Method: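 Universal 'all 10-mer' protein binding microarrays (Agilent AMADID 015681) probed with GST-tagged S. cerevisiae TFs (full-length or DBD) made by in vitro transcription/translation (PURExpress), about 100-200 nM. Bound TF was detected with fluorescent anti-GST. Each ungapped 8-mer (which stands for itself and its reverse complement) is scored by the PBM enrichment score (E-score), a modified Wilcoxon-Mann-Whitney statistic from -0.5 to +0.5, computed with the Universal PBM Analysis Suite. Scale: above 0.35 generally sequence-specific binding.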

Going from TCTACGAA to TCTGCAGA, the “PBM E-score” value rises from -0.167 to -0.0464.

First: AGATCTAG
Second: AGCATACT
The “PBM E-score” value of the first is higher: -0.065 for the first, -0.122 for the second.

First: ATTTGATA
Second: CTCGTACC
The “PBM E-score” value of the first is higher: 0.177 for the first, -0.108 for the second.

First: CCATACTA
Second: GCCTCGAC
The “PBM E-score” value of the first is higher: 0.127 for the first, -0.139 for the second.

First: ACGTAAGG
Second: AGTGGGAG
The “PBM E-score” value of the first is lower: -0.0233 for the first, 0.0845 for the second.

Going from AGTGTCGC to ACAACCTG, the “PBM E-score” value falls from -0.0707 to -0.125.

Compared with ATAGATAT, ATACACCA is lower in “PBM E-score” value: 0.106 for the first, -0.096 for the second.

Going from CTACCGAC to ATTTTGAC, the “PBM E-score” value rises from -0.0909 to 0.232.

Compared with AAAACGGT, GCCCAGCC is higher in “PBM E-score” value: -0.0171 for the first, -0.00793 for the second.

Going from GACTATAA to AACCACCC, the “PBM E-score” value falls from -0.0537 to -0.189.

Going from ACTGATCC to CAATTACG, the “PBM E-score” value falls from -0.00186 to -0.125.

Compared with AATCACAG, AAACAAAT is higher in “PBM E-score” value: 0.0446 for the first, 0.235 for the second.

First: GCAAAACC
Second: CTGAAACC
The “PBM E-score” value of the first is lower: 0.0964 for the first, 0.114 for the second.

Compared with CCCTAGAA, ACACGTAT is lower in “PBM E-score” value: 0.12 for the first, -0.0391 for the second.

Compared with CAGAACGG, CGTCCCGA is lower in “PBM E-score” value: -0.0884 for the first, -0.221 for the second.

Compared with AAGTACCT, CGAAATTC is higher in “PBM E-score” value: -0.135 for the first, -0.0122 for the second.

Going from ATGCTGGC to ACGATCAC, the “PBM E-score” value falls from 0.0313 to -0.00414.

First: AACTGCTT
Second: CGGAAATA
The “PBM E-score” value of the first is lower: -0.161 for the first, 0.219 for the second.

Compared with ATTGGTTA, AATAGCCC is lower in “PBM E-score” value: 0.174 for the first, -0.0669 for the second.

First: TACGCGGA
Second: ACGCCGCG
The “PBM E-score” value of the first is lower: -0.0704 for the first, -0.0401 for the second.

Compared with AGAATGTA, GGTTGCAA is higher in “PBM E-score” value: 0.0349 for the first, 0.111 for the second.

First: CCCGAACA
Second: ACATAACG
The “PBM E-score” value of the first is higher: 0.0929 for the first, -0.00772 for the second.

Going from CCTTTATA to CCCCGTGC, the “PBM E-score” value rises from -0.161 to 0.0799.

Compared with CGCGTACC, TACGACAA is higher in “PBM E-score” value: -0.0867 for the first, 0.204 for the second.

Compared with CTACAGTC, ATCGCGGA is higher in “PBM E-score” value: -0.184 for the first, 0.0327 for the second.

Going from AGCCTTTA to GTGCGAAC, the “PBM E-score” value rises from -0.239 to -0.145.

Going from AGAAGATG to ACAGGTAT, the “PBM E-score” value rises from -0.0535 to 0.134.

Compared with ACCACTCC, AGATCCGG is lower in “PBM E-score” value: -0.0901 for the first, -0.22 for the second.

Compared with CCATGTTC, GACGCGAA is lower in “PBM E-score” value: 0.0851 for the first, -0.106 for the second.

First: AAAAGAAT
Second: ACGCACGT
The “PBM E-score” value of the first is higher: 0.187 for the first, -0.0699 for the second.

Going from ACGATAGA to ACCTTTTC, the “PBM E-score” value rises from -0.101 to -0.0658.

Going from TCTAAAAA to CTGCAGTA, the “PBM E-score” value rises from -0.192 to -0.184.

Compared with TGAAAGAA, CCCGCCGC is higher in “PBM E-score” value: 0.134 for the first, 0.158 for the second.

Going from GTTTGACA to CGGGTAGA, the “PBM E-score” value falls from 0.0591 to -0.192.

Compared with AAGGGGAG, CATCACCA is higher in “PBM E-score” value: -0.0858 for the first, 0.12 for the second.

Going from CCTCCACG to ATTTGCGA, the “PBM E-score” value rises from -0.345 to 0.0669.

First: GCCGCAGC
Second: ACCTCATG
The “PBM E-score” value of the first is higher: -0.0577 for the first, -0.171 for the second.

Compared with GGAGAATA, GCGGGTGA is lower in “PBM E-score” value: 0.123 for the first, 0.0623 for the second.

Compared with GTTTTAAA, CGTGCGGC is lower in “PBM E-score” value: 0.122 for the first, -0.00739 for the second.

Going from CAGAAGCG to ACCGTAGC, the “PBM E-score” value falls from 0.112 to -0.169.

Compared with GTGTCCAA, GTAATTAC is higher in “PBM E-score” value: 0.0631 for the first, 0.14 for the second.

Compared with TAGTTGCA, CGTCAACC is lower in “PBM E-score” value: 0.121 for the first, -0.204 for the second.

Going from GATATTTA to CCACGACA, the “PBM E-score” value falls from -0.00686 to -0.0789.

Compared with CAGGGAGG, CTGTTATC is higher in “PBM E-score” value: -0.0425 for the first, 0.0631 for the second.

First: ACGCTGGA
Second: AAACGTCA
The “PBM E-score” value of the first is higher: 0.00129 for the first, -0.103 for the second.

First: CCACTACG
Second: GGTGGGCA
The “PBM E-score” value of the first is lower: -0.0895 for the first, -0.042 for the second.

First: GAGACAGA
Second: ATTCGGTC
The “PBM E-score” value of the first is higher: 0.14 for the first, 0.0208 for the second.

First: CAACGCGA
Second: GTTGGCCA
The “PBM E-score” value of the first is higher: 0.164 for the first, -0.0399 for the second.

Going from GAACGAGA to ACCGCGCA, the “PBM E-score” value rises from 0.016 to 0.11.

First: ACGGACGC
Second: ATCATCAG
The “PBM E-score” value of the first is lower: -0.0737 for the first, 0.0405 for the second.

Going from TATGTAAA to CCGGCGCG, the “PBM E-score” value falls from 0.103 to -0.0793.

First: CGGTTGGA
Second: AACAAGCA
The “PBM E-score” value of the first is lower: -0.0354 for the first, 0.101 for the second.

First: CCGCTTCG
Second: AGTATCAA
The “PBM E-score” value of the first is lower: -0.259 for the first, 0.225 for the second.

Compared with ATTGCAGG, TTTACAAA is lower in “PBM E-score” value: 0.158 for the first, 0.0163 for the second.

Compared with AGATGGTG, ATTGAAAT is higher in “PBM E-score” value: -0.0597 for the first, 0.161 for the second.

First: CGCAAAAC
Second: ACTGCACT
The “PBM E-score” value of the first is higher: 0.0615 for the first, -0.00829 for the second.

First: CACGAATG
Second: CATGACCG
The “PBM E-score” value of the first is higher: 0.156 for the first, -0.108 for the second.

First: CTTGAGAC
Second: ATAGGTAA
The “PBM E-score” value of the first is lower: -0.0469 for the first, 0.102 for the second.

Going from AGACCTCT to ACGCCTTC, the “PBM E-score” value rises from -0.181 to -0.136.

Going from AGACAGCT to AGTTAATA, the “PBM E-score” value rises from 0.12 to 0.145.

Compared with GCACCCGC, CTCACCGC is lower in “PBM E-score” value: -0.0112 for the first, -0.0705 for the second.

First: CGAATCGC
Second: AGGGTGAT
The “PBM E-score” value of the first is lower: -0.0917 for the first, 0.143 for the second.

Compared with ATCCTGCG, CATTATTC is higher in “PBM E-score” value: -0.109 for the first, 0.133 for the second.

Compared with TCCTTCCA, GGGAAGAA is higher in “PBM E-score” value: -0.237 for the first, -0.136 for the second.

First: ATAGGTCG
Second: ACACAAGG
The “PBM E-score” value of the first is higher: 0.0448 for the first, -0.0552 for the second.

Going from CATCGTCG to ACTGCACA, the “PBM E-score” value falls from -0.00682 to -0.0855.

First: ATGCCCAT
Second: CGAAGACC
The “PBM E-score” value of the first is lower: -0.093 for the first, 0.0649 for the second.

Going from CTTTGAGC to ATCCCCGG, the “PBM E-score” value rises from -0.135 to -0.0668.

Going from AGTCGCCA to CTCTTAAG, the “PBM E-score” value rises from -0.129 to 0.00878.

First: GTATTCAC
Second: TCTCGTAA
The “PBM E-score” value of the first is higher: 0.131 for the first, 0.0488 for the second.

Going from ATGCTACG to AAACGTAC, the “PBM E-score” value falls from 0.0764 to -0.0531.

Compared with CCCAGTCG, GTTCTGCA is higher in “PBM E-score” value: -0.143 for the first, 0.0907 for the second.

First: ATACGTAG
Second: GAGCATAA
The “PBM E-score” value of the first is lower: 0.0138 for the first, 0.141 for the second.

First: AAATTTAA
Second: AATTTCTG
The “PBM E-score” value of the first is higher: 0.0888 for the first, 0.0538 for the second.

First: ACTCAGCC
Second: CCGTGCTA
The “PBM E-score” value of the first is higher: -0.112 for the first, -0.188 for the second.

Going from ACGAGCTG to CCATAGGC, the “PBM E-score” value falls from 0.215 to -0.133.

Going from CTTCTGAC to CAAGCGCA, the “PBM E-score” value rises from -0.105 to 0.363.

Going from ATCACAGG to ACATGAAC, the “PBM E-score” value rises from -0.0499 to 0.0132.

Going from TGCTCCAA to CCACCAAC, the “PBM E-score” value falls from 0.0197 to -0.0118.

Compared with TAAAGACA, GAATGCTC is lower in “PBM E-score” value: -0.014 for the first, -0.0761 for the second.

First: CGCCTCTC
Second: CAGGCTGA
The “PBM E-score” value of the first is lower: -0.318 for the first, -0.156 for the second.

First: CTCATAAC
Second: ATGACAAT
The “PBM E-score” value of the first is lower: -0.0907 for the first, 0.172 for the second.

Going from ACCGGCGT to ATGAATGC, the “PBM E-score” value rises from -0.0447 to 0.13.

First: TCGCTACA
Second: ACGCACTC
The “PBM E-score” value of the first is lower: -0.251 for the first, -0.0434 for the second.

Compared with AAACTTGA, AGTAGCAT is higher in “PBM E-score” value: -0.027 for the first, 0.0324 for the second.

Compared with AAGACTCA, AGTTGCAA is higher in “PBM E-score” value: -0.249 for the first, 0.119 for the second.
